Data from the supplement of paper PMC10849652.
This is one part of the list.

Amino acid sequences for entries named in this document (tags omitted). A change or cut given only in a name is not applied to a line headed by its entry.
UniProt Q9HCL2: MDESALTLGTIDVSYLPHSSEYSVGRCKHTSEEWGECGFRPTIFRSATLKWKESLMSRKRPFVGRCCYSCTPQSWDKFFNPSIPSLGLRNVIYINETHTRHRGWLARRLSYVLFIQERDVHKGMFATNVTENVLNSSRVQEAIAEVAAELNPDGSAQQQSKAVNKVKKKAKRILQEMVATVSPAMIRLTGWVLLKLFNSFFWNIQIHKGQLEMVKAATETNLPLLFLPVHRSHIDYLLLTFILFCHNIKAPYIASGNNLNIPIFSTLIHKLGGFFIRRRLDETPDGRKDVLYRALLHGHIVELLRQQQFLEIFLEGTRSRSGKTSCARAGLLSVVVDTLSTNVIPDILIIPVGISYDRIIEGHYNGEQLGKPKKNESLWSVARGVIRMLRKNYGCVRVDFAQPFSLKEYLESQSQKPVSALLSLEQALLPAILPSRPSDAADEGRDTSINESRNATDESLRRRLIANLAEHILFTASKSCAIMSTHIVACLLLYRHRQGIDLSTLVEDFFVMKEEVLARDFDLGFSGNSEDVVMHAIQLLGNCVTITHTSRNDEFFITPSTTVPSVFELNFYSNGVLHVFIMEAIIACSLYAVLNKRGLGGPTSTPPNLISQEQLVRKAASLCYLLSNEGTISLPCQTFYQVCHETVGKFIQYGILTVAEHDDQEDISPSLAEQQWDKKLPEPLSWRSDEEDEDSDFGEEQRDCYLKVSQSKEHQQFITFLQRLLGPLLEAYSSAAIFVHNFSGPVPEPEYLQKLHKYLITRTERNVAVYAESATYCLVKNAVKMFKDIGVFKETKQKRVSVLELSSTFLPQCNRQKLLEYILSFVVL
UniProt Q86V85: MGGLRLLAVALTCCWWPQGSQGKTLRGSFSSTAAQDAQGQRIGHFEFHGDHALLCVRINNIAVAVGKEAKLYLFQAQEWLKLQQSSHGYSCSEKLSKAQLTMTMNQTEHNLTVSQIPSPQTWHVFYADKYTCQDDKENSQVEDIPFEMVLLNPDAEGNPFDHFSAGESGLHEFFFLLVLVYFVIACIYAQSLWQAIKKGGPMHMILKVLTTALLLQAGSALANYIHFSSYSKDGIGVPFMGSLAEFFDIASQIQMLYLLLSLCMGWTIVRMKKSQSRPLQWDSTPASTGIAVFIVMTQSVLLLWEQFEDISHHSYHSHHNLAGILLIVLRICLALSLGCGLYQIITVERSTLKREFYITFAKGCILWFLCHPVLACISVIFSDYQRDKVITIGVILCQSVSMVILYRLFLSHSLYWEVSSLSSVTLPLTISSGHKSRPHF
UniProt P21695: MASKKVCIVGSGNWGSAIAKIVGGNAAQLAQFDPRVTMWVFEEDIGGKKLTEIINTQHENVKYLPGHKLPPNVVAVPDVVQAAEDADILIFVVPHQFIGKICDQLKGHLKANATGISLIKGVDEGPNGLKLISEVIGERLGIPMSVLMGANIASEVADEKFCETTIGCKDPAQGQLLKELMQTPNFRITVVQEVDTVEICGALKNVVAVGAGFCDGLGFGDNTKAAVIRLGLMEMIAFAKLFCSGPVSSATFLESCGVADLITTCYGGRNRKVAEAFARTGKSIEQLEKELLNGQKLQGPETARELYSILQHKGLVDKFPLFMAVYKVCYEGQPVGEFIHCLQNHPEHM
UniProt Q9H4G4: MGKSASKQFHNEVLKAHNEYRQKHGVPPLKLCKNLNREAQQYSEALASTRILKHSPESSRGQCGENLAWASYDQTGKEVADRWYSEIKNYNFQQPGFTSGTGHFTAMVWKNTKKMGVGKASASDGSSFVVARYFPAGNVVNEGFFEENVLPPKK
UniProt Q9H4A5: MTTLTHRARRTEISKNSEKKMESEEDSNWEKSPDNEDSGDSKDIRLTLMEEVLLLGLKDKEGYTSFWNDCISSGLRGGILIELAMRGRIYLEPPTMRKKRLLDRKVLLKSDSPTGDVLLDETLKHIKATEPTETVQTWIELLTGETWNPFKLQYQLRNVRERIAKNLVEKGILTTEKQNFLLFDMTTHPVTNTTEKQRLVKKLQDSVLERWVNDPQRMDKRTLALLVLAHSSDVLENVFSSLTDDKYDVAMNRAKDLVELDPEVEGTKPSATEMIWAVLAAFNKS
UniProt P28799: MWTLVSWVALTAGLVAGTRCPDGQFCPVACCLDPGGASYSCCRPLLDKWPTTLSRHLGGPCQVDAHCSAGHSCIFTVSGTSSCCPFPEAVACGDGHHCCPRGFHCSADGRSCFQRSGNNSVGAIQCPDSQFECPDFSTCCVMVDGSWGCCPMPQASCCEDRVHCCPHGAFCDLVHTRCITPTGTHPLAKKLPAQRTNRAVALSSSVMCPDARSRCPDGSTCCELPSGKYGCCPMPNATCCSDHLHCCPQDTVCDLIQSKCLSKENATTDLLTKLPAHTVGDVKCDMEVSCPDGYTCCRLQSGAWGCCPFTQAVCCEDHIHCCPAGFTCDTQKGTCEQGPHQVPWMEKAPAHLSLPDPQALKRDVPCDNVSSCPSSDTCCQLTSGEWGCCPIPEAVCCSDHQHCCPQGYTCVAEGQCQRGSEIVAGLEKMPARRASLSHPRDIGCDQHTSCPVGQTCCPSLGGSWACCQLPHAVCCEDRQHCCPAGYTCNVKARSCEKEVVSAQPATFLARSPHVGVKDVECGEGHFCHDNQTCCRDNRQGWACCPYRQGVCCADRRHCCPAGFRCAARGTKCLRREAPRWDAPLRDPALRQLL
UniProt Q8TD30: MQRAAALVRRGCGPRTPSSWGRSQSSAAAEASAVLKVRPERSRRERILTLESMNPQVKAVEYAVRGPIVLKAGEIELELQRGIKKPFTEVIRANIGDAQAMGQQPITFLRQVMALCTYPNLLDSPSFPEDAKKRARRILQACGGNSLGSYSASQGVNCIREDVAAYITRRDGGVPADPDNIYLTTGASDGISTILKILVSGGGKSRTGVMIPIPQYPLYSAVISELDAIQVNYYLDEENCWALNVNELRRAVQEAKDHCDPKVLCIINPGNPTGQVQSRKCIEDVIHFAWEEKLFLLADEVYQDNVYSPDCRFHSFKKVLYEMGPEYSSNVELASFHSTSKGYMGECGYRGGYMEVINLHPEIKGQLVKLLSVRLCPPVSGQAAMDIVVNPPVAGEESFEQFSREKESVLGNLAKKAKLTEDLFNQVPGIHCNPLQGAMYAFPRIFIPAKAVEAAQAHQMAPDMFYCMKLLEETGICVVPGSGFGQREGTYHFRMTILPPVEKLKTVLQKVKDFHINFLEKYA
UniProt O75487: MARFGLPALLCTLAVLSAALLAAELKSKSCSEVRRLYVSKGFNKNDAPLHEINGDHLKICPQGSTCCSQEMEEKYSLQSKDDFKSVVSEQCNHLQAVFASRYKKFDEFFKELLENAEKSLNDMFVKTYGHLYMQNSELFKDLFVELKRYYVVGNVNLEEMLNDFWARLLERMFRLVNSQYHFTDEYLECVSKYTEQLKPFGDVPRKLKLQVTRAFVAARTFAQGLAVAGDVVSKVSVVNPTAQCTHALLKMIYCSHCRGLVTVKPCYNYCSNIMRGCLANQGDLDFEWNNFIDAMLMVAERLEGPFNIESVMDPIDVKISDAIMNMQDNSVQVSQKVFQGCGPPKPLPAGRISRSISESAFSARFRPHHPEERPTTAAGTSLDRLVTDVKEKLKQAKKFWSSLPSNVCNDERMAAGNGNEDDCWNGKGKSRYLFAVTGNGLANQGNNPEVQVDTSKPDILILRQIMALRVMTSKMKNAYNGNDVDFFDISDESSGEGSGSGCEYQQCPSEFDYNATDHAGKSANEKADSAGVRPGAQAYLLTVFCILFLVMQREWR
UniProt Q6ZS86: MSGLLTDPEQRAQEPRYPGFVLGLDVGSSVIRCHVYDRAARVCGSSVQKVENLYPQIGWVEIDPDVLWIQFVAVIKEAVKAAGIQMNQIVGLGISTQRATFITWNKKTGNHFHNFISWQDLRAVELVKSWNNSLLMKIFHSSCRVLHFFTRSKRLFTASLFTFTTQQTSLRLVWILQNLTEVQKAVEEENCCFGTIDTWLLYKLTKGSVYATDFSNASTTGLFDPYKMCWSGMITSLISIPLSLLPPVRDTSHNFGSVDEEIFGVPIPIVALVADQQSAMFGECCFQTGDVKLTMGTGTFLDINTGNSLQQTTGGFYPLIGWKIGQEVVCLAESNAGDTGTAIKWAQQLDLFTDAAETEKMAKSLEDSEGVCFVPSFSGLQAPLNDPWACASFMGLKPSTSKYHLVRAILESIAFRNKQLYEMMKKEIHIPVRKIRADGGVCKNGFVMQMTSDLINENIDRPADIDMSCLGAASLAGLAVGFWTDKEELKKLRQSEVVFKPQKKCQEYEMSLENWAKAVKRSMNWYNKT
UniProt Q9BVP2: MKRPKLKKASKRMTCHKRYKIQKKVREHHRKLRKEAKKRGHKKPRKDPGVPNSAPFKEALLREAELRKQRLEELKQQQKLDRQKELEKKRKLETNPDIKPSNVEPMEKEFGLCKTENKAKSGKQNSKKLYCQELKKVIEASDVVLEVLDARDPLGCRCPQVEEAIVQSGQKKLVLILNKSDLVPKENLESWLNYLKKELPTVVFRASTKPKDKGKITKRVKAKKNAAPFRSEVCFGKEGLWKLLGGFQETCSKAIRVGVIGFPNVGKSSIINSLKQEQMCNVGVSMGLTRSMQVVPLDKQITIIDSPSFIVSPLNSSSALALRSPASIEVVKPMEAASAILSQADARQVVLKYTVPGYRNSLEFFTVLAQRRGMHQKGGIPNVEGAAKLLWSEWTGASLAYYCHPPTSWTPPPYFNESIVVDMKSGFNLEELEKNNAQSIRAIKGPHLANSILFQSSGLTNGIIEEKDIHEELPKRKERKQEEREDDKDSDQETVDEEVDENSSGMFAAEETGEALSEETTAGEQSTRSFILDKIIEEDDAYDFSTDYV
UniProt A6NDN3: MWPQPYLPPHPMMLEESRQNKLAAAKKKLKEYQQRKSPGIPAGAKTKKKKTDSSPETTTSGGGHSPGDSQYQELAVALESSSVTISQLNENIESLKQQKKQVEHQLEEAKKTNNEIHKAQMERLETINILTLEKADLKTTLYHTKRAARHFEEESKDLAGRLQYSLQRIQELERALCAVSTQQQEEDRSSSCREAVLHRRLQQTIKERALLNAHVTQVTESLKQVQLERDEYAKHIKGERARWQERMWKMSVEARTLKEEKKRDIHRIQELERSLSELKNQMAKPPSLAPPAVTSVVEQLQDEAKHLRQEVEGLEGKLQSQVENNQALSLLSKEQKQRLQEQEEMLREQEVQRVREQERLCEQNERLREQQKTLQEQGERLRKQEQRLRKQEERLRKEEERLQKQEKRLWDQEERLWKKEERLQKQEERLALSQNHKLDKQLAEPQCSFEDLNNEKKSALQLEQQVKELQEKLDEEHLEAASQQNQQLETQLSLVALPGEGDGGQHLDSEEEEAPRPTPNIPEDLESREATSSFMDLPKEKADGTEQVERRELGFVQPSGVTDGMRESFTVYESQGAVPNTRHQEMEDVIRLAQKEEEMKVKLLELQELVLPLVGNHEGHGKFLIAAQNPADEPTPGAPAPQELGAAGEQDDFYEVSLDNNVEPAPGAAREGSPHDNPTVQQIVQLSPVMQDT
UniProt Q9UBI6: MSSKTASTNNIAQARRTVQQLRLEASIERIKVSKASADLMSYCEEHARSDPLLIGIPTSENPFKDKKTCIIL
UniProt Q92805: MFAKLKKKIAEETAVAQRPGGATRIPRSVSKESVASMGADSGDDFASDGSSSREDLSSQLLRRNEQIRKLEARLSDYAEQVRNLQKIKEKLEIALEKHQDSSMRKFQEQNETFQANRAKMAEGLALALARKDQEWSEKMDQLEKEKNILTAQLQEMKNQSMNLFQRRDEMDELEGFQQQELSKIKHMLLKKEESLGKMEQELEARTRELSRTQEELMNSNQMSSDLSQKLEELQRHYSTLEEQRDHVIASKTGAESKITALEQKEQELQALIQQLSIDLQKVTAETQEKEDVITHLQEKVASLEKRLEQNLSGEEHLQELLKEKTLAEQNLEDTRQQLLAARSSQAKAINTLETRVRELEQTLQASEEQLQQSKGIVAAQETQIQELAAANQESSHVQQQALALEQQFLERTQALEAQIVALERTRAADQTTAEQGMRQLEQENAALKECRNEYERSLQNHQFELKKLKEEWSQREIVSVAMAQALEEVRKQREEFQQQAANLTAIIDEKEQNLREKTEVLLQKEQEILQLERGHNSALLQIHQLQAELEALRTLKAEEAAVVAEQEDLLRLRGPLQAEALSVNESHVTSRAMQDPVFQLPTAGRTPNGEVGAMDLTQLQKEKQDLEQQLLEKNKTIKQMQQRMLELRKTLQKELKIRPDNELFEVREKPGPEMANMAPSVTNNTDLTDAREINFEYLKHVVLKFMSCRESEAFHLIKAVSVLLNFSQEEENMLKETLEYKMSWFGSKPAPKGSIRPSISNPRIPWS

Compound: CN1CCC(CNc2ccc3ncc(-c4cccc(OC(F)(F)F)c4)n3n2)CC1
Experiment: log2 fold change, soluble protein after heating vs DMSO (PISA); higher = thermal stabilisation; K562 cells, 10 uM, 30 min; active = over 0.2 and 3.5 SD of the protein, either way, in both replicates (recomputed)
In short: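 K562 cells at 2×10^6 cells/mL were given 10 μM compound for 30 min. Aliquots then went through 3 min of heating across 48°C-58°C, were pooled, and were extracted in PBS with 0.5% NP-40 at 4°C, and the supernatant after 21,000xg for 90 min was quantified by TMTpro 16plex LC-MS/MS with channel sums equalised. Thermal stability relative to control samples, from duplicates, is given as log2 fold change.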

Row | Target | log2 fold change
1 | GPAM (UniProt Q9HCL2) | inactive: -0.208
2 | GPR180 (UniProt Q86V85) | inactive: -0.333
3 | GPD1 (UniProt P21695) | inactive: -0.183
4 | GLIPR2 (UniProt Q9H4G4) | inactive: -0.239
5 | GOLPH3L (UniProt Q9H4A5) | inactive: 0.308
6 | GNPTG (UniProt Q9UJJ9) | inactive: 0.124
7 | GNL3L (UniProt Q9NVN8) | inactive: -0.04
8 | GPAA1 (UniProt E9PLG8) | inactive: 0.004
9 | GRN (UniProt P28799) | inactive: 0.14
10 | GPT2 (UniProt Q8TD30) | inactive: -0.06
11 | GPC4 (UniProt O75487) | inactive: -0.144
12 | GOLGA8R (UniProt I6L899) | inactive: -0.033
13 | GK5 (UniProt Q6ZS86) | inactive: -0.149
14 | GNL3 (UniProt Q9BVP2) | inactive: 0.081
15 | GJA1 (UniProt P17302) | inactive: 0.763
16 | GPS1 (UniProt A8K070) | inactive: 0.015
17 | GOLGA6B (UniProt A6NDN3) | inactive: 0.067
18 | GNG12 (UniProt Q9UBI6) | inactive: 0.226
19 | GIGYF1 (UniProt O75420) | inactive: -0.141
20 | GOLGA1 (UniProt Q92805) | inactive: 0.012
21 | GOLIM4 (UniProt F8W785) | inactive: 0.034
22 | GLT8D1 (UniProt Q68CQ7) | inactive: 0.106
23 | GNL2 (UniProt Q13823) | inactive: 0.191
24 | GPCPD1 (UniProt Q9NPB8) | inactive: -0.077
25 | GOPC (UniProt Q9HD26) | inactive: 0.485

Single values from the list:
In log2 fold change, GPAA1 (UniProt E9PLG8) has inactive: 0.004
In log2 fold change, GPT2 (UniProt Q8TD30) has inactive: -0.06
